For 1 substance, binding results are on record in paper PMC4605787.

Amino acid sequences for entries named in this document (tags omitted).
UniProt P47197: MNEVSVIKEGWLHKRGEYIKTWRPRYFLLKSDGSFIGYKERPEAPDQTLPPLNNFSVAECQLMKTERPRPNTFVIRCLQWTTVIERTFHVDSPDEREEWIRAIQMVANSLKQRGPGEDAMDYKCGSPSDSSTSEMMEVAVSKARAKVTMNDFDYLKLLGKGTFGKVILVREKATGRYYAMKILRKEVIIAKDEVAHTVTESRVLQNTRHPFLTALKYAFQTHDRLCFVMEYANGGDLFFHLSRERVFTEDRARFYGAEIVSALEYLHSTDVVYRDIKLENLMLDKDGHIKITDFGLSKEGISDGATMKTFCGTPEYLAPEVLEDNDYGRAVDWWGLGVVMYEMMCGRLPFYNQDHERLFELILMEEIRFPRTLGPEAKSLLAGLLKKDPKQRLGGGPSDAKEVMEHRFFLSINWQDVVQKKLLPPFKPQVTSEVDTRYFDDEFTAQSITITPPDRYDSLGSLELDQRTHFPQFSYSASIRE
UniProt Q62868: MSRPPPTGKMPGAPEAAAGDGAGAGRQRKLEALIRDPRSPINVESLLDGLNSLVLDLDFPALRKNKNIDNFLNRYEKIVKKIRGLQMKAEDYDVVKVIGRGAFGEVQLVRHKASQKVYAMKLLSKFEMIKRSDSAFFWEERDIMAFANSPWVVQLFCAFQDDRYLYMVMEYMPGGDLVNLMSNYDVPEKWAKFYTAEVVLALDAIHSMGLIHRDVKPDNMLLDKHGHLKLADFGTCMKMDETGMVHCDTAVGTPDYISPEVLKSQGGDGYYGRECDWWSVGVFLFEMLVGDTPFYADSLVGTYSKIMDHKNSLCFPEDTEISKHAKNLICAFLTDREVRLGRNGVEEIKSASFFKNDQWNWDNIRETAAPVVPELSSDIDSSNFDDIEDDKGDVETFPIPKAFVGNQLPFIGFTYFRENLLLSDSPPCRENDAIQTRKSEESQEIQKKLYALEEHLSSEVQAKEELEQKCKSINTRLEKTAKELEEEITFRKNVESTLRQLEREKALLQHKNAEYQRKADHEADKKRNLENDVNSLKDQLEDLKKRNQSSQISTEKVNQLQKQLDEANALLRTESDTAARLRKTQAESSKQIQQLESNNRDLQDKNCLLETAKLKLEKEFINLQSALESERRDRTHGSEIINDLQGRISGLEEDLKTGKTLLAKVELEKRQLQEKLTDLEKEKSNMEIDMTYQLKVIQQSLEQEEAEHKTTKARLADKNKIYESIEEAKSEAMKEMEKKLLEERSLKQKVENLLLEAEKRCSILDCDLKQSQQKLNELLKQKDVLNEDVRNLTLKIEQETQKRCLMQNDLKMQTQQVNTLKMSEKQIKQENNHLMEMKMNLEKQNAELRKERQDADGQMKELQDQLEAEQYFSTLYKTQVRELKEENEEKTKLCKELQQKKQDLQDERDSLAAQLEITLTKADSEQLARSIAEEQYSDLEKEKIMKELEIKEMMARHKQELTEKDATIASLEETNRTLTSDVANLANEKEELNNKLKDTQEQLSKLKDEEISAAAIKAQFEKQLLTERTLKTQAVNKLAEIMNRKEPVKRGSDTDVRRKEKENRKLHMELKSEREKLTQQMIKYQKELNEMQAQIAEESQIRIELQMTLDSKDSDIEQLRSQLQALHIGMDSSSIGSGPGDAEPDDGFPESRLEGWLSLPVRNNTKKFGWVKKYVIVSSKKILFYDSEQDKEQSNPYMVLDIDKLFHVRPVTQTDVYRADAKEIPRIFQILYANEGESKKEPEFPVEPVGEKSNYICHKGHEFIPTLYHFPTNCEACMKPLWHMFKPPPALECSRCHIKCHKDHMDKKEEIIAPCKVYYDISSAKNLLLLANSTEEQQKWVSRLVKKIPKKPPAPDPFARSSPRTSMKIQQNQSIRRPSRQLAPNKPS

No constants are given. Whether binding was seen depends on the method and setting. In cells and extracts the contact can be indirect. Some entries that bind do so weakly or less than the wild type.

For this test, the target named is Akt2 (rat (endogenous in L6 myoblasts)) (UniProt P47197). Kind of test: co-IP; endogenous Akt2 immunoprecipitated with anti-Akt2 (NIgG as control) from 1 mg L6 myoblast lysate; cells serum-starved 4 h, with or without 100 nM insulin for 15 min at 37°C; western blot with anti-Akt2 and anti-ROCK2.

As to “Rho-associated protein kinase 2 (from UniProt Q62868 1-1388)”, the binding result was “binds”.
